According to paper PMC7819943, “Rice protein-binding microarrays: a tool to detect cis-acting elements near promoter regions in rice”:
The other results are listed elsewhere or left out.

Target: T1, OsSMF1 (Oryza sativa, UniProt Q6ZLB0 1-436)
T1 sequence: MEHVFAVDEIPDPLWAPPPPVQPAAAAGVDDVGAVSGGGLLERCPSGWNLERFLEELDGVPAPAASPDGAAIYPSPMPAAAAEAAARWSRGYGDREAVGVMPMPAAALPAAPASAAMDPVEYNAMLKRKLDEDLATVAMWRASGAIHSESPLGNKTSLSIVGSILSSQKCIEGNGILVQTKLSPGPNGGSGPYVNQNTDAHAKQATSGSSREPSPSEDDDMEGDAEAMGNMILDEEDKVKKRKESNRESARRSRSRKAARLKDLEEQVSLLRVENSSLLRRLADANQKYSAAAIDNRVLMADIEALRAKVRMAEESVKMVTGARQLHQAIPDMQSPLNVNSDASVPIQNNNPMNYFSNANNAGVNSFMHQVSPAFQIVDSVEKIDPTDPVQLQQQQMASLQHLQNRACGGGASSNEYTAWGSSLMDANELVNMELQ
Assay: protein-binding microarray (RPBM); PBS, 2% BSA, 51.3 ng/ul salmon testes DNA, 50 uM zinc acetate, 200 nM TF, 25 C, 1 h; high values mean tight binding
Conditions: protein: recombinant; tags: N-terminal polyhistidine and DsRed monomer fusion (pET32a); chain copies: 2; label: CyDye5-dUTP incorporated in the synthesized complementary strand; 3' TTTTT single-stranded linker to array surface; dsDNA, one strand shown
In short: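 Per-feature fluorescence intensity (arbitrary units), read on an Axon 4000B scanner, is the binding signal. Transcription factors carrying an N-terminal polyhistidine tag and DsRed fusion were expressed in E. coli BL21-CodonPlus and purified on Ni–NTA. A custom Agilent array, made double-stranded by primer extension with Cy5-dUTP and blocked with 2% BSA, was incubated with 200 nM protein in PBS, 2% BSA, salmon testes DNA and 50 µM zinc acetate at 25 °C for 1 h and then washed.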

Row | Sequence | binding signal
1 | CCATCGGAACGACACGTCGGATCGTCGGCGTCGGCAGCAGCGGAGTCACCTAGTGCAG | 9230 fluorescence intensity (a.u.)
2 | ACGGTCCTGCGTCATCCTTCCGTCACCAGTTTCTTGCCGACGGAGTCACCTAGTGCAG | 20400 fluorescence intensity (a.u.)
3 | GCCAGTGACATTTGGGTCACACGCTGACTCAGCCGCCACGCGGAGTCACCTAGTGCAG | 19300 fluorescence intensity (a.u.)
4 | ATCTTGACAAATTTGCTTGTAGTTTGTAGAATTTGCTGTTCGGAGTCACCTAGTGCAG | 21500 fluorescence intensity (a.u.)
5 | GCCGAAACGCGAAGTGACAGTGACAAGGGAAGGACGGCCCCGGAGTCACCTAGTGCAG | 3220 fluorescence intensity (a.u.)
6 | GCTTGCGCTGCATCACGGAAACATCCGATTGTGCATCACGCGGAGTCACCTAGTGCAG | 3800 fluorescence intensity (a.u.)
7 | GGGATTAGTGGGTAGGGAGGGATTCATCCCCAACAGGGATCGGAGTCACCTAGTGCAG | 3140 fluorescence intensity (a.u.)
8 | CCAAACATGGGCCAAATTCAATTTTAGCAAGGCACGTACCCGGAGTCACCTAGTGCAG | 3140 fluorescence intensity (a.u.)
9 | ATCTTAAATACTACTAGAAATTAACGGAGACTAAGGCTTGCGGAGTCACCTAGTGCAG | 26500 fluorescence intensity (a.u.)
10 | TTCAGGTGGCCACTTCCTGCCACGTCCTGAGTGAGTAAACCGGAGTCACCTAGTGCAG | 8690 fluorescence intensity (a.u.)
11 | ACCAACCGTAAAATTTTGCATGTGTCACTGACAGCTTGTCCGGAGTCACCTAGTGCAG | 5620 fluorescence intensity (a.u.)
12 | CACCGCTACCTACGTTGTCGCCACCCACGTCAATAATCCTCGGAGTCACCTAGTGCAG | 6310 fluorescence intensity (a.u.)
13 | ACGCAGGGGAGGGAGGGAGCGGTGGTGGTGGCGGCGGCGCCGGAGTCACCTAGTGCAG | 4240 fluorescence intensity (a.u.)
14 | TCCGATACGCCGAGGGAGTACACGCTAGCGACACTACCGGCGGAGTCACCTAGTGCAG | 3200 fluorescence intensity (a.u.)
15 | ATCAACTTTCGGCTTTACACCGTTGACGTAAGAATGCTTACGGAGTCACCTAGTGCAG | 3620 fluorescence intensity (a.u.)
16 | GAGCCCACGTGGGCCCCATATGTCAGCCTCACTCCTCCCTCGGAGTCACCTAGTGCAG | 8840 fluorescence intensity (a.u.)
17 | ATGTTGCTTAATTTTCCTTAGCAAATATTCAAGTCAAGGTCGGAGTCACCTAGTGCAG | 3160 fluorescence intensity (a.u.)
18 | GCACGAAGCCATCGGCGTCCACCCACCACATCGACGCGACCGGAGTCACCTAGTGCAG | 3140 fluorescence intensity (a.u.)
19 | ATCCACGTGGCAATGTATTAATCCAGTCAGCAACATCTCACGGAGTCACCTAGTGCAG | 12400 fluorescence intensity (a.u.)
20 | CCTCCGGCCTACGGGCTCGCTTCGGCCGAACGCTACGCCACGGAGTCACCTAGTGCAG | 3240 fluorescence intensity (a.u.)
21 | GATATATTAGCCGAAACTGTCACGTGGACGACATATTAGCCGGAGTCACCTAGTGCAG | 5960 fluorescence intensity (a.u.)
22 | GGGCCTGCCGTTGACTGACCCGTTGACACGGCCACACGCACGGAGTCACCTAGTGCAG | 3320 fluorescence intensity (a.u.)
23 | ATGAACTCGGCCTCGTTTATCTCTGACATGTGGGACCGGACGGAGTCACCTAGTGCAG | 3200 fluorescence intensity (a.u.)
24 | ACCCAAAATATGCACTCCCTCTGTCAAAGAGCCAACTGCTCGGAGTCACCTAGTGCAG | 3240 fluorescence intensity (a.u.)
25 | CCCTCCTCTCCGTACGTGGAGCGCATGCAAATCCCCTCGCCGGAGTCACCTAGTGCAG | 4460 fluorescence intensity (a.u.)
26 | ACCTCTTGCTGCTGCTCATTCTGATGTCATTCAAAGAGATCGGAGTCACCTAGTGCAG | 4480 fluorescence intensity (a.u.)
27 | CGCCGACGTCGGCCGCGCCGAGGCCGTCCTCGCAAACGCCCGGAGTCACCTAGTGCAG | 3500 fluorescence intensity (a.u.)

Single entries from the results shown:
TCCGATACGCCGAGGGAGTACACGCTAGCGACACTACCGGCGGAGTCACCTAGTGCAG – binding signal: 3200 fluorescence intensity (a.u.)
ATGTTGCTTAATTTTCCTTAGCAAATATTCAAGTCAAGGTCGGAGTCACCTAGTGCAG – binding signal: 3160 fluorescence intensity (a.u.)
ACCCAAAATATGCACTCCCTCTGTCAAAGAGCCAACTGCTCGGAGTCACCTAGTGCAG – binding signal: 3240 fluorescence intensity (a.u.)
ACGGTCCTGCGTCATCCTTCCGTCACCAGTTTCTTGCCGACGGAGTCACCTAGTGCAG – binding signal: 20400 fluorescence intensity (a.u.)

(continued)

Row | Sequence | binding signal
28 | TCTTCTCTCCTCCACCTCAGCGTTTAGTTGGCTTACAGTCCGGAGTCACCTAGTGCAG | 9290 fluorescence intensity (a.u.)
29 | ATGTGTAGGTCAAAATATATGTCAGCAATTATAAGAGTACCGGAGTCACCTAGTGCAG | 3530 fluorescence intensity (a.u.)
30 | CTTTTGACATTATATTAGACAGATGGTAATCAAATTTAACCGGAGTCACCTAGTGCAG | 3360 fluorescence intensity (a.u.)
31 | GAAAGATTATGTAACAAGATTGTACTGTCATGATGACATGCGGAGTCACCTAGTGCAG | 3840 fluorescence intensity (a.u.)
32 | CTACAAATACCCACGCAACACAGCGTCAGCGTGGCCATCGCGGAGTCACCTAGTGCAG | 9040 fluorescence intensity (a.u.)
33 | CGATCGCCACCGGCGCAGCGAGATCTGATTGATATTGATCCGGAGTCACCTAGTGCAG | 19300 fluorescence intensity (a.u.)
34 | CCTGGGGTTTATGTGGCGCCGTGTCGCCGTCTGTATACCACGGAGTCACCTAGTGCAG | 3910 fluorescence intensity (a.u.)
35 | CGCCTGTCAAATCCTAGTCAGGGAATCTGTCTTCCATCTACGGAGTCACCTAGTGCAG | 5640 fluorescence intensity (a.u.)
36 | CCTCCATCTCCACGTACTTCTCCACGCCTCCATCGATGGACGGAGTCACCTAGTGCAG | 6010 fluorescence intensity (a.u.)
37 | CCCGTGCGCCCACCCTCTCCCTTCTCTTGTCTCTCCCCTTCGGAGTCACCTAGTGCAG | 3250 fluorescence intensity (a.u.)
38 | AGCGACACGCGGCGGCGGGCAGAGCTGGAGAGGTGGGGCACGGAGTCACCTAGTGCAG | 3880 fluorescence intensity (a.u.)
39 | CTTTTAGTCGATCAGGTGAACATGACCCATTGTGTGATTCCGGAGTCACCTAGTGCAG | 3390 fluorescence intensity (a.u.)
40 | ACACGTGGGACCCACGTGGGTCCCATGCTGACTCAGCTGCCGGAGTCACCTAGTGCAG | 28100 fluorescence intensity (a.u.)
41 | GGACGGCCGCACCAAGGCCGTCGACGTCACCGGCCCCGACCGGAGTCACCTAGTGCAG | 4350 fluorescence intensity (a.u.)
42 | GCGCCCAACACTTCATTGGACAGTGGTTGTCATGAGTCTTCGGAGTCACCTAGTGCAG | 3480 fluorescence intensity (a.u.)
43 | CCCGTCACACGGTGACTCACACCGATCCACGCCGCCACCGCGGAGTCACCTAGTGCAG | 10200 fluorescence intensity (a.u.)
44 | TGGCTGACTGACTGGCGGCGGCCATGTGGAGGTTGAAGGTCGGAGTCACCTAGTGCAG | 3840 fluorescence intensity (a.u.)
45 | GCTAGTGGTCCCACATGTCAGCTGTGAGCGTACTCGCCTTCGGAGTCACCTAGTGCAG | 3750 fluorescence intensity (a.u.)
46 | ATACACGCGCACACACACGTCACTACTTCACATGCAACACCGGAGTCACCTAGTGCAG | 15200 fluorescence intensity (a.u.)
47 | TCTGACTTTGTGACCTGGAATCATGGATATGTCATGGAGTCGGAGTCACCTAGTGCAG | 3940 fluorescence intensity (a.u.)
48 | GGTTTAATCATTGACAAAATTAAACTGACTAGGAATGAAACGGAGTCACCTAGTGCAG | 3570 fluorescence intensity (a.u.)
49 | ATCCTGCTTGACTCCAGCTGGTCACCGCGCTTGTCGAGCTCGGAGTCACCTAGTGCAG | 3620 fluorescence intensity (a.u.)
50 | CTTTTGCCCTTCATGACAACCTAAACCCCAGCTTCAGAGTCGGAGTCACCTAGTGCAG | 4230 fluorescence intensity (a.u.)
51 | CATGGATAATTTGTTTTGGAGTGACACACTGACACTGATGCGGAGTCACCTAGTGCAG | 4020 fluorescence intensity (a.u.)
52 | CTAGATGGCCTTATTATCTCTACATCACACGTTATATCTACGGAGTCACCTAGTGCAG | 3300 fluorescence intensity (a.u.)
53 | TGCTGACTATGATGCCACGTCAGCGAAACCACCCATATATCGGAGTCACCTAGTGCAG | 23000 fluorescence intensity (a.u.)
54 | CAAAACGATCGGAGTTATCCGGAGACGCCACGTCAGCTAGCGGAGTCACCTAGTGCAG | 25900 fluorescence intensity (a.u.)
